Values from PubChem BioAssay AID504793 (Drosophila RNAi Screening Center, 2011)

Purpose: 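Whole-genome screen for parts of the DNA damage checkpoint at G2/M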 (primary screen)
Cell system: Drosophila S2R+ cells
Reagents: long dsRNA against Drosophila genes, about 0.25 µg dsRNA per well
Time to read-out: 4 days of dsRNA, then 4 hours of drug before read-out
Conditions: doxorubicin 0.5 µM for 4 hours to cause double-strand breaks, in cells also given a low, harmless dose of dsRNA against nbs to sensitise the assay
Measurement: 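Per-well count of mitotic cells stained for phospho-histone H3 after doxorubicin exposure, used as mitotic index; counts are raw and not normalised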
Direction: mitotic cells: higher = more cells in mitosis, weaker G2 arrest
Call rule: 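Genes are called active only when high mitotic counts were reproduced with independent dsRNAs and mitosis was checked for delay without damage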
Calls: active = confirmed in follow-up tests; inactive = not confirmed
The deposit covers about 23,000 reagents; below is a random part of those that have a named target and a result. In the full data, 62 (0.27%) got an active call. 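Calls come from follow-up tests whose scores are not deposited, so confirmed genes may have low counts here; counts are not normalised per plate.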 The raw values are shown without normalisation. Reagents against one gene are numbered here. A plus sign joins genes that one reagent is predicted to hit.

gene,dsRNA no.,"mitotic cells, replicate 1",call
bves,1,6,inactive
bves,2,7,inactive
dgo,1,9,inactive
dgo,2,4,inactive
msl-1,1,9,inactive
CG32551,1,48,inactive
CG15708,1,8,inactive
RpL23A,1,7,inactive
RpL23A,2,7,inactive
RpL23A,3,4,inactive
ste24b,1,4,inactive
ste24b,2,3,inactive
Evi5,1,4,inactive
Evi5,2,4,inactive
CG31960,1,2,inactive
CG31960,2,5,inactive
Boot,1,5,inactive
Ca-alpha1T,1,11,inactive
Ca-alpha1T,2,6,inactive
Ca-alpha1T,3,11,inactive
Ca-alpha1T,4,16,inactive
Ca-alpha1T,5,7,inactive
CG7988,1,13,inactive
Oatp58Da,1,11,inactive
Oatp58Da,2,1,inactive
a10,1,5,inactive
nompA,1,9,inactive
CG31213,1,7,inactive
CG31213,2,7,inactive
CG17261,1,7,inactive
CG3528,1,4,inactive
CG3528,2,8,inactive
ovm + CG31975,1,15,inactive
CG6304,1,7,inactive
CG6304,2,3,inactive
CG34327,1,9,inactive
CG34327,2,6,inactive
CG34327,3,1,inactive
dnr1,1,2,inactive
dnr1,2,2,inactive
dnr1,3,6,inactive
sordd2 + sordd1,1,8,inactive
sordd2 + sordd1,2,3,inactive
GatC + PolG2,1,4,inactive
exu,1,15,inactive

A portion from the list above, for reference:
gene,dsRNA no.,"mitotic cells, replicate 1",call
CG32551,1,48,inactive
CG15708,1,8,inactive
RpL23A,1,7,inactive
RpL23A,2,7,inactive
RpL23A,3,4,inactive
